For one molecule, IC50 results are on record in patent US20200129492A1, “TREATMENT OF CANCER WITH DIHYDROPYRIDINES” (MENRI GROUP LTD., priority 2017, published 2020).

This experiment relates to NSCLC A549 lung cancer cells. Description: XTT assay, cell proliferation after 72 hours incubation, IC50. The settings on record: Homo sapiens, A549, 72 h, read-out: Plus DMSO (Control), IC-50. The class given is cell-based. The protocol:
Example 10 (see also FIG. 10) is a study to determine the effect of the combination of calcium blockers on the proliferation of cancer cells. NSCLC A549 lung cancer cells were incubated with various concentrations of a combination of calcium blockers ranging from 1 μM to 50 μM. […] An XTT assay was then performed. The cell proliferation was then calculated. Results are representative of at least three independent experiments. IC50 was calculated from the % inhibition data.

pIC50: −log10 of the molar value.

Take `CN(C)C(=O)C(CCN1CCC(O)(c2ccc(Cl)cc2)CC1)(c1ccccc1)c1ccccc1` [Loperamide, 4-[4-(4-Chlorophenyl)-4-hydroxypiperidin-1-yl]-N,N-dimethyl-2,2-diphenylbutanamide]: the pIC50 is 4.91.
